Test results from patent US20120012123A1, “COMPOSITIONS, ARTICLES AND METHODS FOR PREVENTING OR REDUCING TOBACCO-ASSOCIATED DAMAGE” (Technion Research & Development Foundation Ltd., priority 2007, published 2012).
At least one compound was matched to its structure with a doubt left.

Key:
H1299 lung cancer cells = experiment: Mitochondrial membrane potential (ΔΨm), JC-1 incorporation by flow cytometry; type: cell-based, human; details: 5 mM agent
Method: (§1) For mitochondrial oxidative damage, pellets were re-suspended in 0.5 ml of 10 μg/ml 10-N-nonyl acridine orange (NAO) and incubated for 30 minutes at 37° C. and dark condition. Mitocondrial membrane potential was measured after staining cells with 1 μg/ml JC-1 (5,5′,6,6′-tetrachloro-1,1′,3,3′-tetraethylbenzimidazolyl carbocyanine iodide; Molecular Probes) for 30 minutes at 37° C. in the dark. Uncoupling with carbonyl cyanide p-trifluoromethoxyphenylhydrazone (FCCP) (20 µM for 30 minutes) was used as positive control.
Mitochondrial membrane permeabilization is an essential step leading to apoptosis. Disruption of ΔΨm irreversibly commits cells to undergo death and is an early marker of apoptosis. Furthermore, cigarette smoke was previously shown to induce mitochondrial depolarization in human monocytes. Therefore, reduced ΔΨm, as measured by diminished incorporation of the fluorescent dye JC-1, was used as an early indicator for CS-induced apoptosis.
H1299 lung cancer calls were exposed for 120 minutes to CS with or without saliva. […] JC-1 incorporation was measured by flow cytometry method.

H1299 lung cells = experiment: Mitochondrial oxidative damage, NAO binding to cardiolipin by flow cytometry; type: cell-based, human; details: 5 mM agent, 120 minutes of CS exposure (FIG. 15)
Method: as §1
The mitochondrial quality is the amount of all the intra-cellular mitochondria and their content, and it is an important index of mitochondrial injury. Nonyl-Acridine Orange (NAO) is a fluorescent dye that can bind specifically to unoxidizable cardiolipin (CL), a mitochondrial phospholipid, independent of the mitochondria energetic state (ΔΨm). NAO lost its affinity for CL with a hydroperoxide fatty acid (CL-OOH).
NAO flow cytometry was used to measure the quality of H1299 lung cells exposed for 120 minutes to CS with or without saliva.

SMILES: CC(=O)N(O)CCCCCNC(=O)CCC(=O)N(O)CCCCCNC(=O)CCC(=O)N(O)CCCCCN [DES, deferoxamine]
- protection against ΔΨm losses (in words) (H1299 lung cancer cells; CS 120 minutes alone, no saliva (FIG. 14)): moderate protection
- protection against ΔΨm losses (in words) (H1299 lung cancer cells; CS 120 minutes and 33% saliva (FIG. 14)): ineffective
- amount of NAO bound to mitochondrial CL (in words) (H1299 lung cells): the same
